Results are given in words; binding and its absence hold for the method and conditions named. Some binding calls cover weakened binding; strength is not graded here. Values belong to the binder of their own block, whether it stands above or below them.
Biological target: Recombinant Human MSP Receptor ECD-His tag (human) (UniProt Q04912)
Test: SPR (Biacore)

Protein sequences, listed by entry. Tags and fused reporters are not part of them. Residues count along the entry.
UniProt Q04912, residues 25-957: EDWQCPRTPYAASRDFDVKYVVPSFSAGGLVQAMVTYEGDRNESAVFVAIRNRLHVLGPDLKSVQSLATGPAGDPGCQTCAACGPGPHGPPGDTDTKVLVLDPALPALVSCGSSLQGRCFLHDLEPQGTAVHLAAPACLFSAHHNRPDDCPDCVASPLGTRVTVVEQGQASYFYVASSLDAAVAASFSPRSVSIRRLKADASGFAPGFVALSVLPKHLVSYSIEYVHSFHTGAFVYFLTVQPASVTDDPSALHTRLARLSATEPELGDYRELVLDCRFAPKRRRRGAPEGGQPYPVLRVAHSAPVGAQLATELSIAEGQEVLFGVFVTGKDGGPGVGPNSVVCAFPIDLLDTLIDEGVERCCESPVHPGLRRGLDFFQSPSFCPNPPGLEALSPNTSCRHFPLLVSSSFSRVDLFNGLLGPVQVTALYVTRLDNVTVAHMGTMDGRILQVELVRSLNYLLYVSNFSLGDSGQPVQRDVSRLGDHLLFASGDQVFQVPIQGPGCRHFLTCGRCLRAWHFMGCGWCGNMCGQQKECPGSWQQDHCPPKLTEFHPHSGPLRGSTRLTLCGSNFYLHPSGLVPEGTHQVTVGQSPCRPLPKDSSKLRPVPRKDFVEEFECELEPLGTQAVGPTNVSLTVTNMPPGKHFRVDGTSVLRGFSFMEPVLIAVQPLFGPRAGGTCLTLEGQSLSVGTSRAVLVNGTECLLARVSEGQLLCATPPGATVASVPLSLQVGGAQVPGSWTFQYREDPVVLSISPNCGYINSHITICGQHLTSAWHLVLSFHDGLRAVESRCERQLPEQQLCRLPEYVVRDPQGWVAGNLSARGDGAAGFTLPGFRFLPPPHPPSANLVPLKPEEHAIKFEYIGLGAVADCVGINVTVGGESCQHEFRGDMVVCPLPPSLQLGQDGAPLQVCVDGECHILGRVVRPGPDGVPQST

binding: binds
B1: DVD2336 (bispecific antibody)
VH: QVQLQESGPGLVKPSEILSLTCTVSGGSISSHYWSWVRQPPGKGLEWIGYIYYSGSTNYNPSLKSRVTISVDTSKNQFSLNLSSVTAADTAVYYCARIPNYYDRSGYYPGYWYFDLWGRGTLVTVSSASTKGPEVQLVQSGGGLVKPGGSLRLSCAASGFTFSSFAMHWVRQAPGKGLEWISVIDTRGATYYADSVKGRFTISRDNAKNSLYLQMNSLRAEDTAVYYCARLGNFYYGMDVWGQGTTVTVSS
VL: QAVLTQPSSLSAPPGASASLTCTLRSGFNVDSYRISWYQQKPGSPPQYLLRYKSDSDKQQGSGVPSRFSGSKDASANAGILLISGLQSEDEADYYCMIWHSSAWVFGGGTKLTVLRQPKAAPEIVLTQSPGTLSVSPGERATLSCRASQSIGSSLHWYQQKPGQAPRLLIKYASQSLSGIPDRFSGSGSGTDFTLTISRLEPEDFAVYYCHQSSRLPHTFGQGTKVEIK

binding: binds
B2: DVD2340 (bispecific antibody)
VH: QVQLQESGPGLVKPSEILSLTCTVSGGSISSHYWSWVRQPPGKGLEWIGYIYYSGSTNYNPSLKSRVTISVDTSKNQFSLNLSSVTAADTAVYYCARIPNYYDRSGYYPGYWYFDLWGRGTLVTVSSASTKGPEVQLLESGGGLVQPGGSLRLSCTASGFTFSSYAMNWVRQAPGKGLEWVSAISGSGGTTFYADSVKGRFTISRDNSRTTLYLQMNSLRAEDTAVYYCAKDLGWSDSYYYYYGMDVWGQGTTVTVSS
VL: QAVLTQPSSLSAPPGASASLTCTLRSGFNVDSYRISWYQQKPGSPPQYLLRYKSDSDKQQGSGVPSRFSGSKDASANAGILLISGLQSEDEADYYCMIWHSSAWVFGGGTKLTVLRQPKAAPDIQMTQFPSSLSASVGDRVTITCRASQGIRNDLGWYQQKPGKAPKRLIYAASRLHRGVPSRFSGSGSGTEFTLTISSLQPEDFATYYCLQHNSYPCSFGQGTKLEIK
